Measurements as given in article PMC3642348.
These are yes or no findings as the source states them, for the method shown. Some binding calls cover weakened binding; strength is not graded here. Where a sequence is shown, tags or fusion partners need not be part of it.

Assays:
[1] = target: human GAAP (hGAAP), C-terminally HA-tagged (human) (UniProt Q9HC24); assay: SDS-PAGE with DTT
[2] = target: hGAAP TMD5–6 (residues 145–238), C-terminal HA fusion (human) (UniProt Q9HC24); assay: non-reducing SDS-PAGE

B1: human GAAP (hGAAP), C-terminally HA-tagged (protein, UniProt Q9HC24 1-238)
chain: MADPDPRYPRSSIEDDFNYGSSVASATVHIRMAFLRKVYSILSLQVLLTTVTSTVFLYFESVRTFVHESPALILLFALGSLGLIFALILNRHKYPLNLYLLFGFTLLEALTVAVVVTFYDVYIILQAFILTTTVFFGLTVYTLQSKKDFSKFGAGLFALLWILCLSGFLKFFFYSEIMELVLAAAGALLFCGFIIYDTHSLMHKLSPEEYVLAAISLYLDIINLFLHLLRFLEAVNKK
For B1, the binding [1] was “binds”.

B2: hGAAP TMD5–6 (residues 145–238), C-terminal HA fusion (domain or fragment, UniProt Q9HC24 145-238)
chain: SKKDFSKFGAGLFALLWILCLSGFLKFFFYSEIMELVLAAAGALLFCGFIIYDTHSLMHKLSPEEYVLAAISLYLDIINLFLHLLRFLEAVNKK
B2 was tested, and the binding [2] was “no binding”.
